Measured values taken from article doi:10.1101/2022.11.16.516813.
No constants are given. Whether binding was seen depends on the method and setting. Binding seen in cells or lysates may run through a third protein. Some binding calls cover weakened binding; strength is not graded here.

Biological target: T1, DDX47 (human (endogenous in HEK Expi293F)) (UniProt Q9H0S4)
T1 sequence: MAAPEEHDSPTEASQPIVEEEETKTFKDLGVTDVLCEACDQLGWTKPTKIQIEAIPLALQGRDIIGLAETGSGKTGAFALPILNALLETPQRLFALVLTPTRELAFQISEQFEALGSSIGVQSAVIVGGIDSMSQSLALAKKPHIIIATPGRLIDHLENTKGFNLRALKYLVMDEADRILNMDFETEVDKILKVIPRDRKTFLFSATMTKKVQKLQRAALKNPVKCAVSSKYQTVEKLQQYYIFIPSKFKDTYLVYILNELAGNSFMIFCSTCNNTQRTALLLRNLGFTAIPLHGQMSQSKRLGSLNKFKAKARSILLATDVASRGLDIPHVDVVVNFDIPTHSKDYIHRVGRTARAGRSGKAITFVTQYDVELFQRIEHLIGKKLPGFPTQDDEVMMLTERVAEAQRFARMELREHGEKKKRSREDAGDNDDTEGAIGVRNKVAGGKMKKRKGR
Assay: cross-linking

B1: UTP25 (protein, UniProt Q68CQ4 1-756)
chain: MGKRGSRSQSQLLNTLTKKQKKHLRDFGEEHPFYDRVSRKEAKPQICQLSESSDSSDSESDSESEPQQVSGYHRLLATLKNVSEEEEEDEEEEEEEDSIVDDAEMNDEDGGSDVSVEEEMAAESTESPENVALSADPEGKEDGEEPPGTSQTSPEEFTDAKHESLFSLETNFLEEESGDNSSLKASQDPFLQHVNKELKEKAIQAVATNPKTTHELKWPILGQLFFSSKFQKLETFKPPKDIDLKSLHLQKPLESTWTKTNSQFLSGPQKSSSPFTPLQKELFLIMNSYRDLFYPERTALKNGEEIRHVYCLHVINHILKANAQVLGNNSRRRSQKFGVGDDDDFRDQGLTRPKVLIVVPFREAALRVVQLFISLLEGDSKKKIIVSNKKRFQGEYGSDPEERPPNLKRPEDYEAVFVGNIDDHFRIGVAILQRSIRLYAPFYSSDILIASPLGLRTIIGGEGEKKRDFDFLSSIELLIIDQADIYLMQNWEHVLHLMNHMNLLPLDSHGVDFSRVRMWSLNNWSKYYRQTLLFGALQDAQINSVFNKYCVNMQGQVAVRNVPMTGSISHVLVQLPHVFQRMEAENLASVIDARFNFFVNKILPQYRDAVMSHTLIYIPSYFDFVRLRNYFKKEELNFTHICEYTQKSGVSRARHFFLQGEKQFLLFTERFHFYKRYTIKGIRNLIFYELPTYPHFYSEICNMLRATNRGEEATWTCTVLYSKYDAQRLAAVVGVERAAQMLQSNKNVHLFITGEK
binding: binds
